From PMC12751062
Results are given in words; binding and its absence hold for the method and conditions named.

Chains of the proteins cited; added tags and fusions are not shown. Residues count along the entry.
MET full intracellular domain (ICD: residues K956-S1390) (P08581, residues 956-1390): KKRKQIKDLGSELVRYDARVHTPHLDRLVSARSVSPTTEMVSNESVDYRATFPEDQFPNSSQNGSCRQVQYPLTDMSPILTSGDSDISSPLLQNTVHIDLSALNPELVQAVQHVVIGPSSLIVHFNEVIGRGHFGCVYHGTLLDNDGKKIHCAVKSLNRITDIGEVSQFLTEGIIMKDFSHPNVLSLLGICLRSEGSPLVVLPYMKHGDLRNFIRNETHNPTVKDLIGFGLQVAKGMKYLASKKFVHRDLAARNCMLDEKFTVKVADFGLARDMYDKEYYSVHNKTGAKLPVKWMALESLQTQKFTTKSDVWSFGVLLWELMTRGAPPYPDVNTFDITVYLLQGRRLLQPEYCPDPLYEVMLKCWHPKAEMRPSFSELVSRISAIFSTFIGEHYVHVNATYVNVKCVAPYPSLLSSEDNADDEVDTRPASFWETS
MET kinase domain with the C-tail (KD: residues Q1048-S1390) (P08581, residues 1048-1390): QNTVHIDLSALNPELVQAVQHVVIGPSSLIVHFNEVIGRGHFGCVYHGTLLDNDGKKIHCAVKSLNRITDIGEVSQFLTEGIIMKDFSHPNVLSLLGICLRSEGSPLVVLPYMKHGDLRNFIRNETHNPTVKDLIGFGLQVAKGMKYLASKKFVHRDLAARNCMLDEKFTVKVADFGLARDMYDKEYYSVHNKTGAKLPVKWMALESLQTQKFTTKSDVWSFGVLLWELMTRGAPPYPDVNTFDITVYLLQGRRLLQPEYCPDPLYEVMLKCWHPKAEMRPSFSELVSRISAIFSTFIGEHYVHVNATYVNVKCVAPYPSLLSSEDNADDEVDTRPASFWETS

Key:
[1] = target: MET kinase domain with the C-tail (KD: residues Q1048-S1390) (human) (UniProt P08581); experiment: SEC-MALS; 100 µl of 20 µM dephosphorylated protein, Shodex KW-802.5 column, 4°C; both purified
[2] = target: MET full intracellular domain (ICD: residues K956-S1390) (human) (UniProt P08581); experiment: as above

Row | binding [1] | binding [2] | Substance
1 | no binding (tested: 20 µM) | – | MET kinase domain with the C-tail (KD: residues Q1048-S1390) (from UniProt P08581 1048-1390) (domain or fragment)
2 | – | no binding (tested: 20 µM) | MET full intracellular domain (ICD: residues K956-S1390) (from UniProt P08581 956-1390) (domain or fragment)
